Results reported in patent WO2012172495A1 (dated 2012).
No constants are given. Whether binding was seen depends on the method and setting. Some results given as binding are weak or reduced against the parent protein; the word gives no strength.

Sequences of proteins named here, by UniProt entry; tags and fusion partners are left off. A change or cut given only in a name is not applied to a line headed by its entry. Residues count along the entry.
UniProt Q9H6X2: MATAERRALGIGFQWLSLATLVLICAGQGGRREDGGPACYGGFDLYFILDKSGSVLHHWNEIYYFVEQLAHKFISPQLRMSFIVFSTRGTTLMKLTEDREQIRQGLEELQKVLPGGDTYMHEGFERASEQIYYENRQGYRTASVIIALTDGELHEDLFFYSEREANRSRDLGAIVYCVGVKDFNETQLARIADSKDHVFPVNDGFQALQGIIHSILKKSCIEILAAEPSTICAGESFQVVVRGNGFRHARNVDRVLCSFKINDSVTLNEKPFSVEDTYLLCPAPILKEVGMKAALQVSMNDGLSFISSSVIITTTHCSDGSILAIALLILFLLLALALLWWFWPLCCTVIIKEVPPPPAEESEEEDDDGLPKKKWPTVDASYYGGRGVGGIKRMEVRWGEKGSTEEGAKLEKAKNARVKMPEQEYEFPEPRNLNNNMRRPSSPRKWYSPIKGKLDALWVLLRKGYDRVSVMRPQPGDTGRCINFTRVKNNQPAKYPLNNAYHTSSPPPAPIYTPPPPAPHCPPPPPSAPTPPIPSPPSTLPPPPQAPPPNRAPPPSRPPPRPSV
UniProt Q9CZ52, residues 31-319: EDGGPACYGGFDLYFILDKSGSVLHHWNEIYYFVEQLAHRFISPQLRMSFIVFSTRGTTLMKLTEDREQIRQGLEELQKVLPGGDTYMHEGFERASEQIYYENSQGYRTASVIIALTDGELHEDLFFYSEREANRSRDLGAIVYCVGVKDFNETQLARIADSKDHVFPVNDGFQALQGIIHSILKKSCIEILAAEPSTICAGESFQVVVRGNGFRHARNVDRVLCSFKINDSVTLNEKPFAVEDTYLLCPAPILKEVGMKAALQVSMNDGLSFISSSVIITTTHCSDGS

Assays:
[1] = biological target: purified recombinant hTEM8(ED)-Fc fusion protein, biotinylated (human) (UniProt Q9H6X2); assay: Figure 1 legend: ELISA on hTEM8(ED)-Fc
[2] = biological target: human TEM8 on transfected HEK-293 cells (293/Flag-hTEM8) (human) (UniProt Q9H6X2); assay: immunofluorescence microscopy, 10 ug/ml Fab on HEK-293 cells transfected with human TEM8, against untransfected HEK-293
mouse TEM8 (mouse) [3] = biological target: mouse TEM8 (mouse) (UniProt Q9CZ52); assay: Figure 1 legend: ELISA; mouse TEM8 format not described
[4] = biological target: purified recombinant hTEM8(ED)-Fc fusion protein, biotinylated (human) (UniProt Q9H6X2); assay: ELISA, Fab on biotinylated human TEM8-Fc
mouse TEM8 (mouse) [5] = biological target: mouse TEM8 (mouse) (UniProt Q9CZ52); assay: ELISA, Fab; mouse TEM8 format not described

binding [1]	binding [2]	binding (mouse TEM8 (mouse) [3])	binding [4]	binding (mouse TEM8 (mouse) [5])	Binder
binds	binds	binds	binds	binds	L1 Fab fragment (anti-human TEM8) (Fab, V domains shown) VH: QVQLVESGGGLVQPGGSLRLSCAASGFTFNSYAMSWVRQAPGKGLEWVSLISSGSSTYYADSVKGRFTISRDNSKNTLYLQMNSLRAEDTAVYYCARAGFKFDNWGQGTLVTVSS VL: DIELTQPPSVSVAPGQTARISCSGDSIPNYSVSWYQQKPGQAPVLVIYADSNRPSGIPERFSGSNSGNTATLTISGTQAEDEADYYCQSYDNTSPDLVFGGGTKLTVLG
–	–	binds	–	binds	L5 Fab fragment (Anti-human TEM8_cl4) (Fab, V domains shown, Tested as a purified Fab fragment; The light chain is lambda) VH: QVQLVESGGGLVQPGGSLRLSCAASGFTFNSYGLSWVRQAPGKGLEWVSNISSNGSYTYYADSVKGRFTISRDNSKNTLYLQMNSLRAEDTAVYYCARAGYGLFDVWGQGTLVTVSS VL: DIELTQPPSVSVAPGQTARISCSGDKLREYYVHWYQQKPGQAPVLVIYGDNKRPSGIPERFSGSNSGNTATLTISGTQAEDEADYYCSSWAGSRSGTVFGGGTKLTVL
